In all, about 52,000 sequences went through this assay and about 210 (0.4%) were called active.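 Rule for the calls: active = gene whose silencing raises cell survival under the drug, median off-target-corrected z-score across its silencing RNAs 2 or more; inactive = the rest.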 This is one part of the list.

The assay in a line: Resistance to Poly (ADP-Ribose) Polymerase inhibitor: Gene Identification via Genome-wide siRNA Screen. As to conditions: mouse BRCA2 R2336H ES cells, olaparib, CellTiter-Glo viability; hits give high values. In a few lines: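 Genome-wide siRNA screen (3 siRNAs/gene, 20 nM) in mouse ES cells carrying hypomorphic BRCA2 R2336H; olaparib 500 nM added 48 h post-transfection, CellTiter-Glo viability 72 h later. Normalized to plate-median negative control; MAD z-scores, gene median, seed-adjusted.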
(In general: In ATP-based viability assays light output follows the ATP content of the culture.)
Regarding GGGAAAACAGCUCCUCACATT against Zfhx4, the z-score was inactive: -1.71.

On to “CGAAGCCAAUAAAUGCAGCTT against 4930479M11Rik”, for which the z-score is inactive: -0.509.

Take GCCCGAUAUUAUAACGGUGTT against Eomes: the z-score was inactive: 1.79.

Take “UAGGAGAUAUCUGCUACCGTT against 7420402K12Rik”: the z-score is inactive: -1.96.

With GCUUUCCUAGACAAUCUAUTT against Arhgap19, the z-score is inactive: -1.14.

For “GGCAGAGACCACUAAUACCTT against D930015E06Rik”, the z-score was inactive: -1.08.

For CGUGAACAAAAGAAGGGCUTT against Scel, the z-score is inactive: 0.22.

On to CGGAAAUUCUAGAAGCCAUTT against Kcnab2, for which the z-score is inactive: 0.232.

As to “GCUUCGCUCGCAUUCUUAUTT against 1200013F24Rik”, the z-score is inactive: -1.85.

On to “GGCGAAGGUGUAGAAUCUCTT against A830094I09Rik”, for which the z-score was active: 2.23.

GGCUUUUUAAAUGCUUCCCTT against Prr7: the z-score was inactive: 0.16.

As to GCAGAGGACAAGAAGCUUATT against H2afy3, the z-score is inactive: 0.854.

In the case of “GGAGGAUAGUACCAAGCAATT against 1700034H14Rik”, the z-score was inactive: -1.41.

Take “CCCGUGGUAAUAGAAAACGTT against D5Ertd135e”: the z-score is inactive: 1.01.

As to GGACAUACUAAUGAGGUCATT against Tbl1x, the z-score was inactive: -0.489.

Consider GGAUGAACCUUCUGACCAATT against Ngfa, for which the z-score is inactive: 0.462.

With GCUCAACAGGCUCAACUACTT against Cndp2, the z-score was inactive: -0.241.

Take GGAAGAAGGAACAUUUUGGTT against Fbxo25: the z-score was inactive: 0.921.

Consider CAUCAAGACAUGACCGUCCTT against AI413582, for which the z-score is inactive: 0.0953.

For the sequence GGAAGACAGAGAAACUCUATT against Clgn, the z-score was inactive: 1.62.

For the sequence GGAGAGGAGUUCUUCAUUCTT against Adamts1, the z-score is inactive: 0.0594.

Consider GCUGUCAUAAGUACUAAAUTT against Slc37a2, for which the z-score was inactive: 0.643.

With “GGGAUAUGGAAAACUAUGATT against 1700025E21Rik”, the z-score is inactive: 0.406.

For the sequence CGAGUCUCCCUGGACAUUGTT against Rara, the z-score was inactive: -1.56.

Regarding “CCAGCUUUUGUUUGUUAGATT against D030016E14Rik”, the z-score is inactive: -0.895.

As to GCUUUUGCACUGGAGAAGUTT against Glra3, the z-score was inactive: 3.07.

For CCUCAUGAUCAAAGUGCGGTT against Tmprss6, the z-score is inactive: 2.01.

In the case of CCCAAGAUCUAAGAGUAUUTT against Rin3, the z-score was inactive: -0.875.
